Data reported in patent US20100222408A1 (Johns Hopkins, published 2010).
No constants are given. Whether binding was seen depends on the method and setting. Binding seen in cells or lysates may run through a third protein. Some entries that bind do so weakly or less than the wild type.

Protein sequences, listed by entry. Tags and fused reporters are not part of them. Lines headed by an entry give the natural chain unless they say otherwise; changes in a name come on top. Chains listed by the source or under a name are the forms on record and can include a tag or linker. Residues count along the entry.
ΔF508-cystic fibrosis transmembrane receptor (P13569, form named): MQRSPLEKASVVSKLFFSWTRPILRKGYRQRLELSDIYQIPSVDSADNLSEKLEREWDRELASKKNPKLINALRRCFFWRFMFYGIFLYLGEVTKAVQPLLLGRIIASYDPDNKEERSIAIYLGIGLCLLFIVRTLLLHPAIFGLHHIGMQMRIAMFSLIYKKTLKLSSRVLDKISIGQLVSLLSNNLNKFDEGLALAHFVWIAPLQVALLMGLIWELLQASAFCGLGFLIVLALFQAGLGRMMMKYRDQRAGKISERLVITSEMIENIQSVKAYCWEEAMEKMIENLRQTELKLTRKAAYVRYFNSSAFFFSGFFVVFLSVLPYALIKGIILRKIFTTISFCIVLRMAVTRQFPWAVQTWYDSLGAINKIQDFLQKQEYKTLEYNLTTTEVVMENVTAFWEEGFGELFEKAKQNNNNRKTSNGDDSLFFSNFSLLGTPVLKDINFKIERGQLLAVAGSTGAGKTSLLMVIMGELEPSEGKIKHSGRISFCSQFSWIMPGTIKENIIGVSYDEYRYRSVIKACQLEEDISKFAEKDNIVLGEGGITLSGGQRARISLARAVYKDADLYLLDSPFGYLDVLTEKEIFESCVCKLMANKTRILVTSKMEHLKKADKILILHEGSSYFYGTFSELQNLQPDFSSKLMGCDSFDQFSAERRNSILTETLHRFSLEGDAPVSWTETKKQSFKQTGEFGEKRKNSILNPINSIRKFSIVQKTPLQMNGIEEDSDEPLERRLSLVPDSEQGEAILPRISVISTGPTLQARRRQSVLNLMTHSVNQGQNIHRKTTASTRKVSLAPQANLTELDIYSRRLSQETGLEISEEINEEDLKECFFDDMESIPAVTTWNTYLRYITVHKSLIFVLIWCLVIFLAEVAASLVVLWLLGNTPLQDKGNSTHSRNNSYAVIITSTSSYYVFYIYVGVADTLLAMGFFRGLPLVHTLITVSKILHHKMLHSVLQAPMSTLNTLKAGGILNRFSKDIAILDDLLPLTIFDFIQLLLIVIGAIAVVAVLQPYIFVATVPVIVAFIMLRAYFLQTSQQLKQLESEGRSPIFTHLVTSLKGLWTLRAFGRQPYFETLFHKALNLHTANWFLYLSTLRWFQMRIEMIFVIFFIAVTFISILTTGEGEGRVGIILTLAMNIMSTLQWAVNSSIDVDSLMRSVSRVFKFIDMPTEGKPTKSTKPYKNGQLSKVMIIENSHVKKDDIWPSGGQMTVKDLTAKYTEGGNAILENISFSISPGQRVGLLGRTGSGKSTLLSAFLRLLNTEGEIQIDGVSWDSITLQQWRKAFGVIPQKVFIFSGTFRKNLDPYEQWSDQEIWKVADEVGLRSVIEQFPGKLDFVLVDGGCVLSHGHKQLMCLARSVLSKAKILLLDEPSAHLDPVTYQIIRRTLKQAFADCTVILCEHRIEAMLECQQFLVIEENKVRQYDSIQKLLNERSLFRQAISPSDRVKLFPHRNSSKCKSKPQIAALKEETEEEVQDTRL
UniProt P55072, residues 2-806: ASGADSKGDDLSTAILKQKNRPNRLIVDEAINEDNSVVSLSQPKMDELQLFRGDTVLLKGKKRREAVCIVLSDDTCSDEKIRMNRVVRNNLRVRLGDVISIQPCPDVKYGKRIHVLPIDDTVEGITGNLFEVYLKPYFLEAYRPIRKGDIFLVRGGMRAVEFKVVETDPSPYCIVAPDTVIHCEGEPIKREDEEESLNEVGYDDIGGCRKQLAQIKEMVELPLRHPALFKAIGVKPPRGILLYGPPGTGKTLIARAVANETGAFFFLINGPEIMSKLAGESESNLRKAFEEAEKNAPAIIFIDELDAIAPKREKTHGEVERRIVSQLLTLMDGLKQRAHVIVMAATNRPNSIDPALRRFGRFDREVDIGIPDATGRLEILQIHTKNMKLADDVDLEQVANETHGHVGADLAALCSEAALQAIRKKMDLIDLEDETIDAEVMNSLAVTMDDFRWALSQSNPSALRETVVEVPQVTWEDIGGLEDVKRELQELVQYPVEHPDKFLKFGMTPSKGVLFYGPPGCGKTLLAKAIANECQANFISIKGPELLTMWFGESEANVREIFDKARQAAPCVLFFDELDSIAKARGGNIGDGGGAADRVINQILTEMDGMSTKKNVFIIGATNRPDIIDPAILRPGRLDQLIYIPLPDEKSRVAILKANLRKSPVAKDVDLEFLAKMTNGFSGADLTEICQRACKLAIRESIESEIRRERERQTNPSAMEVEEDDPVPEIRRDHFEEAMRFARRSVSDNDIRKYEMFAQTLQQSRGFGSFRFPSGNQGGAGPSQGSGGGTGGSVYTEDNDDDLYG

Key:
[1] = target: ΔF508-cystic fibrosis transmembrane receptor (human) (UniProt P13569); experiment: co-immunoprecipitation, IP CFTR from IB3-1 cells, immunoblot VCP (FIG. 4A)
[2] = target: ΔF508-cystic fibrosis transmembrane receptor (human) (UniProt P13569); experiment: co-immunoprecipitation, IP CFTR from IB3-1 cells, immunoblot VCP (FIG. 3B, 3C)
[3] = target: ΔF508-cystic fibrosis transmembrane receptor (human) (UniProt P13569); experiment: co-immunoprecipitation from IB3-1 total protein extract, IP CFTR, immunoblot VCP (FIG. 4A)
[4] = target: ΔF508-cystic fibrosis transmembrane receptor (human) (UniProt P13569); experiment: co-immunoprecipitation, IP CFTR (anti-CFTR 169) from IB3-1 total protein extract, immunoblot VCP
[5] = target: ΔF508-cystic fibrosis transmembrane receptor (human) (UniProt P13569); experiment: co-immunoprecipitation from bronchial brushings of ΔF508 CF subjects, IP CFTR, immunoblot VCP (FIG. 4B)

binding [1]: binds | binding [2]: binds | binding [3]: binds | binding [4]: binds | binding [5]: binds
Substance: p97/valosin-containing protein (from UniProt P55072 2-806) (enzyme)
